We go through seven molecules from article PMC10500460.

Protein sequences, listed by entry. Tags and fused reporters are not part of them.
UniProt P03129: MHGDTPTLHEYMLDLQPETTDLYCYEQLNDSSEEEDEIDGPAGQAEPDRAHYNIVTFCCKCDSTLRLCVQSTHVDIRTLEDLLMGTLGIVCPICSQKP
UniProt Q8TEW0: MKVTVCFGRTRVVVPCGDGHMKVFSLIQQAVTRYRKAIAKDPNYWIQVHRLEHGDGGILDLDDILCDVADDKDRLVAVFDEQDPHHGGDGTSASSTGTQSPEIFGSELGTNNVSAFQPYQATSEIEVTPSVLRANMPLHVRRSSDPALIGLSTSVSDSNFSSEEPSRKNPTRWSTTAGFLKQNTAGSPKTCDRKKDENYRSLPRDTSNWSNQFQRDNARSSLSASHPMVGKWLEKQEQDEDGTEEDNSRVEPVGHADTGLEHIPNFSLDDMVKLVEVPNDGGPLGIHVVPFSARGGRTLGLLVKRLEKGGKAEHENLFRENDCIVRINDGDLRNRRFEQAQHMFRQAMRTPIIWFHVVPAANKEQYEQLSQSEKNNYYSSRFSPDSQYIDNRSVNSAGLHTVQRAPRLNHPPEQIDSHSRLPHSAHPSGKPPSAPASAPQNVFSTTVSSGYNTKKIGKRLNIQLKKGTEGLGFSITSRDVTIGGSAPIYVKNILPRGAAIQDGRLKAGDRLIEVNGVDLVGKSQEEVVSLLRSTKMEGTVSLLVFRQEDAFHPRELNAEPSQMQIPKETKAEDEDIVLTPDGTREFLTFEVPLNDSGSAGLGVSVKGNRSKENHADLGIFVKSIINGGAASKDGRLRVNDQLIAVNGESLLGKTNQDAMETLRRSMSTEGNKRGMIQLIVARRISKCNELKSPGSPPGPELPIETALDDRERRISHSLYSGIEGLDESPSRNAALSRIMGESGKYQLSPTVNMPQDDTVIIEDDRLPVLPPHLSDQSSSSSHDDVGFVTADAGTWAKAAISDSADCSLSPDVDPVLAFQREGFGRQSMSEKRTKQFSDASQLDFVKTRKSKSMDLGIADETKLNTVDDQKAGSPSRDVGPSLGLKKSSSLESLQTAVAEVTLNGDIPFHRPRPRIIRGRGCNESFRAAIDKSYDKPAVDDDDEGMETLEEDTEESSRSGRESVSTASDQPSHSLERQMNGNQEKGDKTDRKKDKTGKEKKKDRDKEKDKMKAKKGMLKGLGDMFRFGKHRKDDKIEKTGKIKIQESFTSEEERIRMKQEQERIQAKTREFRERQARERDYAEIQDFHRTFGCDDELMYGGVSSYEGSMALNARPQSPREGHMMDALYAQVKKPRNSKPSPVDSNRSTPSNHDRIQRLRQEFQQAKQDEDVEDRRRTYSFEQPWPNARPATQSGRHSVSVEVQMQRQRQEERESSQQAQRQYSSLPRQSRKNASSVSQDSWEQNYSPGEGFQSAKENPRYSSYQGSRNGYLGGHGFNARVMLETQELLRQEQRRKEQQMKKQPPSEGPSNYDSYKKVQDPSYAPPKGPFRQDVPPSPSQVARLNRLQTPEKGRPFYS
UniProt Q12923: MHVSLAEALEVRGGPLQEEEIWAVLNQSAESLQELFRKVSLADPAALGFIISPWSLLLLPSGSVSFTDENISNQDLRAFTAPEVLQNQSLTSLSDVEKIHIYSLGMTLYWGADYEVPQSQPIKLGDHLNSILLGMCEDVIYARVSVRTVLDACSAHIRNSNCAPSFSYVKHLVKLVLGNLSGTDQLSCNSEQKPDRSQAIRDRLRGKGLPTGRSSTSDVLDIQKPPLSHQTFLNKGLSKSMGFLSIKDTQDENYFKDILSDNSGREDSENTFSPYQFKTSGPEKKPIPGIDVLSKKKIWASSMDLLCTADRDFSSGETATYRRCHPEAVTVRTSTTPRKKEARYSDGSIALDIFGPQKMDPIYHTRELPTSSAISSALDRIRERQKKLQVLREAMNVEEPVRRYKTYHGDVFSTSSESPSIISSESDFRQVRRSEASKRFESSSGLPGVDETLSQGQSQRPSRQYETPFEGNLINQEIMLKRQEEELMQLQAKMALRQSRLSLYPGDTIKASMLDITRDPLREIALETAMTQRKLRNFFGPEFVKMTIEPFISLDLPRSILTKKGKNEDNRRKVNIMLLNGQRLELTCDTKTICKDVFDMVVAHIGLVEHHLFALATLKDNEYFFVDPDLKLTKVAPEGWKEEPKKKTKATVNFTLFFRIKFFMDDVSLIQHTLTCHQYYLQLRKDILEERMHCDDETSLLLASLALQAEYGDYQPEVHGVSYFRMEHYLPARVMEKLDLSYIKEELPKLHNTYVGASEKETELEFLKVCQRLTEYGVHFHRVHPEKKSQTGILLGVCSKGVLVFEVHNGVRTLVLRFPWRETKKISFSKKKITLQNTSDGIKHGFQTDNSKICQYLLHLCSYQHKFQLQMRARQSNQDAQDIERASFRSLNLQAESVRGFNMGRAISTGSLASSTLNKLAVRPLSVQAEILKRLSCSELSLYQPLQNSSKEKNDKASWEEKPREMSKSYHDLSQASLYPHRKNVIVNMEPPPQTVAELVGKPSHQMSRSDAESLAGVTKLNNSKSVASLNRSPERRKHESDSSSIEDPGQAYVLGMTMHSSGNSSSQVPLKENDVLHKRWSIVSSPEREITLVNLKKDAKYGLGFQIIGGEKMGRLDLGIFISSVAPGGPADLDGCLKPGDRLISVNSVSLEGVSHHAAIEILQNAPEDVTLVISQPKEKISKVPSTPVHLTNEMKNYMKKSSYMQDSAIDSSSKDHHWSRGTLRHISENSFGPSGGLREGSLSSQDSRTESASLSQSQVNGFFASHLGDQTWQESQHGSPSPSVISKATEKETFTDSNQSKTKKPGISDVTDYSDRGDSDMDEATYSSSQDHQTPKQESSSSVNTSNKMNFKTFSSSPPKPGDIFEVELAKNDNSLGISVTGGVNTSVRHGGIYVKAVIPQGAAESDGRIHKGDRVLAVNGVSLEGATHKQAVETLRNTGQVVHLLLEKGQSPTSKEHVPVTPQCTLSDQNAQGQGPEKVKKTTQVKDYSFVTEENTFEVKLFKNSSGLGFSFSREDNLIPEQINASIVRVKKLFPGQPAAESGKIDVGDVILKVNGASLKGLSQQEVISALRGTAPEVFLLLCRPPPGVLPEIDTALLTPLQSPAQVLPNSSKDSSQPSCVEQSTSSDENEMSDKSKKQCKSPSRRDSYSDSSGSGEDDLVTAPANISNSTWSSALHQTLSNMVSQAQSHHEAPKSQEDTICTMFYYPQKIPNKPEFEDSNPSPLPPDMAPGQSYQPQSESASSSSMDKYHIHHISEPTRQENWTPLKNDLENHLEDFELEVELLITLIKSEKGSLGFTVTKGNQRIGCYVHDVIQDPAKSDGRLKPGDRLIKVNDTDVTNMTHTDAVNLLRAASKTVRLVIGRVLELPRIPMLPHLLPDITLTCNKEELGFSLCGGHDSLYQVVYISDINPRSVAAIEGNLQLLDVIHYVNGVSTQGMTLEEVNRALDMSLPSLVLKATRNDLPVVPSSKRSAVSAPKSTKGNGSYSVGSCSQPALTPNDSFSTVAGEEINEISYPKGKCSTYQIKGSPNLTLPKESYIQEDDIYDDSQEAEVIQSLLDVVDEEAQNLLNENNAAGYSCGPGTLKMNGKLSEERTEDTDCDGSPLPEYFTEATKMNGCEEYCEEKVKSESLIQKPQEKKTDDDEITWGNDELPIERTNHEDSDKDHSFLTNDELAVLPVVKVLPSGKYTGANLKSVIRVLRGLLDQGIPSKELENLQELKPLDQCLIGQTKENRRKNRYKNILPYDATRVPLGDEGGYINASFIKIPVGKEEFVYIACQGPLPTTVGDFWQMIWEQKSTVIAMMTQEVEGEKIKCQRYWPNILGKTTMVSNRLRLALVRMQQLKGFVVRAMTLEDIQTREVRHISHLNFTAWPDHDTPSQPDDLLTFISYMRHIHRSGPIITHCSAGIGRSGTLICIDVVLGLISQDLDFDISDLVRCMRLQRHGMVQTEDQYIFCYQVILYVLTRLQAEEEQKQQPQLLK
UniProt P46940: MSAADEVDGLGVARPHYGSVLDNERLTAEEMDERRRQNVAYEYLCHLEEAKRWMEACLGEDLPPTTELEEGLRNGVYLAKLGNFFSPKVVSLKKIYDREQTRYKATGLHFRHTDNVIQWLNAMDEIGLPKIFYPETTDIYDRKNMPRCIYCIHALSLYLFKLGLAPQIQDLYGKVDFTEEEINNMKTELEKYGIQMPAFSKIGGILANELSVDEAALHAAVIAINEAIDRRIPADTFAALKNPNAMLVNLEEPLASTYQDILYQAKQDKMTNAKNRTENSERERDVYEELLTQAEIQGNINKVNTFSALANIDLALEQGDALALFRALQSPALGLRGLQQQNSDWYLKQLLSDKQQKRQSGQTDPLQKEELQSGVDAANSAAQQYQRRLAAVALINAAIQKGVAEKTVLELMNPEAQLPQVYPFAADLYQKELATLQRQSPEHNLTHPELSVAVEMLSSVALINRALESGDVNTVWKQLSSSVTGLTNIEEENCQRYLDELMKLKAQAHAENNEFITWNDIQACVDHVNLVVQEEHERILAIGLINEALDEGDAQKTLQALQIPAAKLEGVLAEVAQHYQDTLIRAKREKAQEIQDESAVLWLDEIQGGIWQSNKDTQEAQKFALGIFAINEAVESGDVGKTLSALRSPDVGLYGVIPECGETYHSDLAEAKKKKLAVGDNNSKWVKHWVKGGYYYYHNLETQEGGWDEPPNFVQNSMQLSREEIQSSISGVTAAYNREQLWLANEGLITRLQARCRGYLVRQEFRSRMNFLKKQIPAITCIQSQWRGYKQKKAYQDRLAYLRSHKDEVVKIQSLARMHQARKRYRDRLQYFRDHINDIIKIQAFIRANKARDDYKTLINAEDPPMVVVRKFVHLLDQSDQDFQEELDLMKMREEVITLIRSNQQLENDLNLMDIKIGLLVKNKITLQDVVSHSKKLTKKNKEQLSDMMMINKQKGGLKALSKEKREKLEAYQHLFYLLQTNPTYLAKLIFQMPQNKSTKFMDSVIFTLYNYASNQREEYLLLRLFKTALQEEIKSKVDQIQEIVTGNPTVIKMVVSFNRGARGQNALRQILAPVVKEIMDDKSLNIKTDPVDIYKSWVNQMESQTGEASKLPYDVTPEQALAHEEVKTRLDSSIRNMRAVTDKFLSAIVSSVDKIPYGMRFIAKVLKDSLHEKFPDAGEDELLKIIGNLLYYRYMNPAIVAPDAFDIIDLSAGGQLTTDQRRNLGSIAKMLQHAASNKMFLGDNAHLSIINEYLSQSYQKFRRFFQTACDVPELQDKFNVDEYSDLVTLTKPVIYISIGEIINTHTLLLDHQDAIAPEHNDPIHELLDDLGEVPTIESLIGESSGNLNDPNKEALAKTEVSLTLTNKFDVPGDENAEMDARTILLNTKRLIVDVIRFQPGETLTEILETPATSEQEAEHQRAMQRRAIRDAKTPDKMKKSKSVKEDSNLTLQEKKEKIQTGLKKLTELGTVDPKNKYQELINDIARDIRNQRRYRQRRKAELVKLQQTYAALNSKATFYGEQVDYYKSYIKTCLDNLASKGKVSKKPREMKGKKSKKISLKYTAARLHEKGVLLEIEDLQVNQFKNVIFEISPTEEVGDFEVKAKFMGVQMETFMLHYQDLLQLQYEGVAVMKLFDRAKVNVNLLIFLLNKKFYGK
UniProt P84092: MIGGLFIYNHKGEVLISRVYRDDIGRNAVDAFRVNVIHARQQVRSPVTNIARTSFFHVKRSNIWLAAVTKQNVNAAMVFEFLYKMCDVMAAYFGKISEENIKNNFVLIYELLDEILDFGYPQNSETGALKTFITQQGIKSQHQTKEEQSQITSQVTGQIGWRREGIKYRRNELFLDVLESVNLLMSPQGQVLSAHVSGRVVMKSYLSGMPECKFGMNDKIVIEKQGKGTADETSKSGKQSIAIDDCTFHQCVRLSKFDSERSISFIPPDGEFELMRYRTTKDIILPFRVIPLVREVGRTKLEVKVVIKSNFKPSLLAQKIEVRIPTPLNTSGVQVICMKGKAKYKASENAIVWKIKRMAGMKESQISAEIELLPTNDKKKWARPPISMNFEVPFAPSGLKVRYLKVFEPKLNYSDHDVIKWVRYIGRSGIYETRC

Where two headings read alike, the source gives them in different places. Results are given in words; binding and its absence hold for the method and conditions named. Binding seen in cells or lysates may run through a third protein. Some binding calls cover weakened binding; strength is not graded here. For some assays here: Tags and fused reporters may be left off the sequences shown.

The target of assay [1] is GST-E7 fusion protein phosphorylated with CKI and GSK3 kinases (human papillomavirus type 16) (UniProt P03129). The assay can be described thus: pull-down; GST fusion proteins bound to glutathione resin incubated 3 h at 4 °C with extracts of transfected HEK293 cells (lysis buffer 50 mM HEPES pH 7.4, 150 mM NaCl, 1 mM MgCl2, 1% Triton X-100); bound proteins by Western blot; for Fig. 6A GST-E7 was first phosphorylated with CKI and GSK3 in presence of regular ATP; only the target purified. On the technique in general: Immunoblotting shows a protein as a band on a membrane.

In assay [2] the target is GST-tagged HPV16 E7 wild type (human papillomavirus type 16) (UniProt P03129). The description is as above.
The target of assay [3] is 16 E7 19–20 phospho-peptide (human papillomavirus type 16). In words: pull-down; biotinylated peptides bound to streptavidin-conjugated beads, incubated with extracts of transfected HEK293 cells; bound proteins by Western blot; only the target purified.
Assay [4] deals with C-terminal FLAG/HA-tagged HPV16 E7 wild type (human papillomavirus type 16) (UniProt P03129). In words: co-IP; HEK293 cells transfected with pRb-HA and FLAG/HA-tagged HPV16 E7; lysates incubated with anti-FLAG agarose beads 3 h at 4 °C; Western blot.
The target in assay [5] is GST-tagged HPV16 E7 wild type (human papillomavirus type 16) (UniProt P03129). The assay can be described thus: pull-down; GST fusion proteins bound to glutathione resin incubated 3 h at 4 °C with extracts of transfected HEK293 cells (lysis buffer 50 mM HEPES pH 7.4, 150 mM NaCl, 1 mM MgCl2, 1% Triton X-100); bound proteins by Western blot; for Fig. 6A GST-E7 was first phosphorylated with CKI and GSK3 in presence of regular ATP; only the target purified. The source holds these as a separate data set.

Assay [6] has as its target GST-E7 fusion protein phosphorylated with CKI and GSK3 kinases (human papillomavirus type 16) (UniProt P03129). The description is as above. The source holds these as a separate data set.
Assay [7] concerns the target 16 E7 19–20 peptide (human papillomavirus type 16). In words: pull-down; biotinylated peptides bound to streptavidin-conjugated beads, incubated with extracts of transfected HEK293 cells; bound proteins by Western blot; only the target purified.
Assay [8] deals with GST-tagged HPV16 E7 wild type (human papillomavirus type 16) (UniProt P03129). The assay can be described thus: pull-down; GST fusion proteins incubated 2 h at 4 °C with in vitro translated, [35S]-methionine-labelled protein; beads washed with lysis buffer; SDS-PAGE and autoradiography; only the target purified.

As for PARD3-Myc (from UniProt Q8TEW0 1-1356), in assay [1], the binding entry is “binds”.

As for PTPN13-HA (from UniProt Q12923 1-2485), the binding entry in assay [1] is listed as “binds”.

As for IQGAP1-Myc (from UniProt P46940 1-1657), the binding entry in assay [2] and in assay [1] was “binds” throughout.

With APμ2-HA (from UniProt P84092 1-435), the binding result in assay [1] and in assay [3] was “binds” in each case.

B1: HA-tagged pRb (protein, UniProt P06400 1-928)
chain: MPPKTPRKTAATAAAAAAEPPAPPPPPPPEEDPEQDSGPEDLPLVRLEFEETEEPDFTALCQKLKIPDHVRERAWLTWEKVSSVDGVLGGYIQKKKELWGICIFIAAVDLDEMSFTFTELQKNIEISVHKFFNLLKEIDTSTKVDNAMSRLLKKYDVLFALFSKLERTCELIYLTQPSSSISTEINSALVLKVSWITFLLAKGEVLQMEDDLVISFQLMLCVLDYFIKLSPPMLLKEPYKTAVIPINGSPRTPRRGQNRSARIAKQLENDTRIIEVLCKEHECNIDEVKNVYFKNFIPFMNSLGLVTSNGLPEVENLSKRYEEIYLKNKDLDARLFLDHDKTLQTDSIDSFETQRTPRKSNLDEEVNVIPPHTPVRTVMNTIQQLMMILNSASDQPSENLISYFNNCTVNPKESILKRVKDIGYIFKEKFAKAVGQGCVEIGSQRYKLGVRLYYRVMESMLKSEEERLSIQNFSKLLNDNIFHMSLLACALEVVMATYSRSTSQNLDSGTDLSFPWILNVLNLKAFDFYKVIESFIKAEGNLTREMIKHLERCEHRIMESLAWLSDSPLFDLIKQSKDREGPTDHLESACPLNLPLQNNHTAADMYLSPVRSPKKKGSTTRVNSTANAETQATSAFQTQKPLKSTSLSLFYKKVYRLAYLRLNTLCERLLSEHPELEHIIWTLFQHTLQNEYELMRDRHLDQIMMCSMYGICKVKNIDLKFKIIVTAYKDLPHAVQETFKRVLIKEEEYDSIIVFYNSVFMQRLKTNILQYASTRPPTLSPIPHIPRSPYKFPSSPLRIPGGNIYISPLKSPYKISEGLPTPTKMTPRSRILVSIGESFGTSEKFQKINQMVCNSDRVLKRSAEGSNPPKPLKKLRFDIEGSDEADGSKHLPGESKFQQKLAEMTSTRTRMQKQKMNDSMDTSNKEEK
Take B1: the binding entry in assay [4], in assay [5], in assay [6], in assay [7] and in assay [3] was “binds” in each case.

B2: Radio-labelled, in vitro translated pRb (protein, UniProt P06400 1-928)
chain: MPPKTPRKTAATAAAAAAEPPAPPPPPPPEEDPEQDSGPEDLPLVRLEFEETEEPDFTALCQKLKIPDHVRERAWLTWEKVSSVDGVLGGYIQKKKELWGICIFIAAVDLDEMSFTFTELQKNIEISVHKFFNLLKEIDTSTKVDNAMSRLLKKYDVLFALFSKLERTCELIYLTQPSSSISTEINSALVLKVSWITFLLAKGEVLQMEDDLVISFQLMLCVLDYFIKLSPPMLLKEPYKTAVIPINGSPRTPRRGQNRSARIAKQLENDTRIIEVLCKEHECNIDEVKNVYFKNFIPFMNSLGLVTSNGLPEVENLSKRYEEIYLKNKDLDARLFLDHDKTLQTDSIDSFETQRTPRKSNLDEEVNVIPPHTPVRTVMNTIQQLMMILNSASDQPSENLISYFNNCTVNPKESILKRVKDIGYIFKEKFAKAVGQGCVEIGSQRYKLGVRLYYRVMESMLKSEEERLSIQNFSKLLNDNIFHMSLLACALEVVMATYSRSTSQNLDSGTDLSFPWILNVLNLKAFDFYKVIESFIKAEGNLTREMIKHLERCEHRIMESLAWLSDSPLFDLIKQSKDREGPTDHLESACPLNLPLQNNHTAADMYLSPVRSPKKKGSTTRVNSTANAETQATSAFQTQKPLKSTSLSLFYKKVYRLAYLRLNTLCERLLSEHPELEHIIWTLFQHTLQNEYELMRDRHLDQIMMCSMYGICKVKNIDLKFKIIVTAYKDLPHAVQETFKRVLIKEEEYDSIIVFYNSVFMQRLKTNILQYASTRPPTLSPIPHIPRSPYKFPSSPLRIPGGNIYISPLKSPYKISEGLPTPTKMTPRSRILVSIGESFGTSEKFQKINQMVCNSDRVLKRSAEGSNPPKPLKKLRFDIEGSDEADGSKHLPGESKFQQKLAEMTSTRTRMQKQKMNDSMDTSNKEEK
modifications: radiolabelled with [35S]-methionine
Regarding B2, the binding result in assay [8] is listed as “binds”.

B3: PTPN14-V5 (protein, UniProt Q15678 1-1187)
chain: MPFGLKLRRTRRYNVLSKNCFVTRIRLLDSNVIECTLSVESTGQECLEAVAQRLELRETHYFGLWFLSKSQQARWVELEKPLKKHLDKFANEPLLFFGVMFYVPNVSWLQQEATRYQYYLQVKKDVLEGRLRCTLDQVIRLAGLAVQADFGDYNQFDSQDFLREYVLFPMDLALEEAVLEELTQKVAQEHKAHSGILPAEAELMYINEVERLDGFGQEIFPVKDNHGNCVHLGIFFMGIFVRNRIGRQAVIYRWNDMGNITHNKSTILVELINKEETALFHTDDIENAKYISRLFATRHKFYKQNKICTEQSNSPPPIRRQPTWSRSSLPRQQPYILPPVHVQCGEHYSETHTSQDSIFHGNEEALYCNSHNSLDLNYLNGTVTNGSVCSVHSVNSLNCSQSFIQASPVSSNLSIPGSDIMRADYIPSHRHSAIIVPSYRPTPDYETVMRQMKRGILHTDSQSQSLRNLNIINTHAYNQPEDLVYSQPEMRERHPYTVPYGPQGVYSNKLVSPSDQRNPKNNVVPSKPGASAISHTVSTPELANMQLQGSHNYSTAHMLKNYLFRPPPPYPRPRPATSTPDLASHRHKYVSGSSPDLVTRKVQLSVKTFQEDSSPVVHQSLQEVSEPLTATKHHGTVNKRHSLEVMNSMVRGMEAMTLKSLHLPMARRNTLREQGPPEEGSGSHEVPQLPQYHHKKTFSDATMLIHSSESEEEEEEAPESVPQIPMLREKMEYSAQLQAALARIPNKPPPEYPGPRKSVSNGALRQDQASLPPAMARARVLRHGPAKAISMSRTDPPAVNGASLGPSISEPDLTSVKERVKKEPVKERPVSEMFSLEDSIIEREMMIRNLEKQKMAGLEAQKRPLMLAALNGLSVARVSGREENRVDATRVPMDERFRTLKKKLEEGMVFTEYEQIPKKKANGIFSTAALPENAERSRIREVVPYEENRVELIPTKENNTGYINASHIKVVVGGAEWHYIATQGPLPHTCHDFWQMVWEQGVNVIAMVTAEEEGGRTKSHRYWPKLGSKHSSATYGKFKVTTKFRTDSVCYATTGLKVKHLLSGQERTVWHLQYTDWPDHGCPEDVQGFLSYLEEIQSVRRHTNSMLEGTKNRHPPIVVHCSAGVGRTGVLILSELMIYCLEHNEKVEVPMMLRLLREQRMFMIQTIAQYKFVYQVLIQFLQNSRLI
For B3, the binding entry in assay [5] and in assay [6] was “binds” throughout.
